Data published in the supplement of paper PMC10849652.
The other results are listed elsewhere or left out. Residues, ends and D or L forms follow the SMILES beside them. *: point of attachment. Cbz = O=C(OCc1ccccc1)*

Protein sequences, listed by entry. Tags and fused reporters are not part of them. Lines headed by an entry give the natural chain unless they say otherwise; changes in a name come on top.
UniProt Q9ULM6, whole entry, looked up: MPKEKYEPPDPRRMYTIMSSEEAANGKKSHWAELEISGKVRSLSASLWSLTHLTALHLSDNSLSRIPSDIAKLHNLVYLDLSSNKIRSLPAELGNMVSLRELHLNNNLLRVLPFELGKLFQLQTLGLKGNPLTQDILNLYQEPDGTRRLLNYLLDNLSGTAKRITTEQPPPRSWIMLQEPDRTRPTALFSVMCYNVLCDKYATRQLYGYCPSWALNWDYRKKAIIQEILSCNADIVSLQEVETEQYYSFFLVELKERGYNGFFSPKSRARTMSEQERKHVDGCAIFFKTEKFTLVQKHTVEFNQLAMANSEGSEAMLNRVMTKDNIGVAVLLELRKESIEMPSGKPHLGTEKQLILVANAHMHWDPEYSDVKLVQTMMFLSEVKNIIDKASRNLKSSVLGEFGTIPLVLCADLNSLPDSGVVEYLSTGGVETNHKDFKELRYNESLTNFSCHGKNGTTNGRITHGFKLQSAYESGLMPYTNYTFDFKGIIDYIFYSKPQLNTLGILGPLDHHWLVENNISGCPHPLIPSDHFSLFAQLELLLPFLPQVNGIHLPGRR
UniProt Q9Y3D0: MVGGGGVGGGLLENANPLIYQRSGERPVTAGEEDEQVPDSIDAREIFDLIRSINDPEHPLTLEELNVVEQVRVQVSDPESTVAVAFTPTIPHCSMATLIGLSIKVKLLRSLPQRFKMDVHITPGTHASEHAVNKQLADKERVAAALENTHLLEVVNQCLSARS
UniProt Q8N3K9: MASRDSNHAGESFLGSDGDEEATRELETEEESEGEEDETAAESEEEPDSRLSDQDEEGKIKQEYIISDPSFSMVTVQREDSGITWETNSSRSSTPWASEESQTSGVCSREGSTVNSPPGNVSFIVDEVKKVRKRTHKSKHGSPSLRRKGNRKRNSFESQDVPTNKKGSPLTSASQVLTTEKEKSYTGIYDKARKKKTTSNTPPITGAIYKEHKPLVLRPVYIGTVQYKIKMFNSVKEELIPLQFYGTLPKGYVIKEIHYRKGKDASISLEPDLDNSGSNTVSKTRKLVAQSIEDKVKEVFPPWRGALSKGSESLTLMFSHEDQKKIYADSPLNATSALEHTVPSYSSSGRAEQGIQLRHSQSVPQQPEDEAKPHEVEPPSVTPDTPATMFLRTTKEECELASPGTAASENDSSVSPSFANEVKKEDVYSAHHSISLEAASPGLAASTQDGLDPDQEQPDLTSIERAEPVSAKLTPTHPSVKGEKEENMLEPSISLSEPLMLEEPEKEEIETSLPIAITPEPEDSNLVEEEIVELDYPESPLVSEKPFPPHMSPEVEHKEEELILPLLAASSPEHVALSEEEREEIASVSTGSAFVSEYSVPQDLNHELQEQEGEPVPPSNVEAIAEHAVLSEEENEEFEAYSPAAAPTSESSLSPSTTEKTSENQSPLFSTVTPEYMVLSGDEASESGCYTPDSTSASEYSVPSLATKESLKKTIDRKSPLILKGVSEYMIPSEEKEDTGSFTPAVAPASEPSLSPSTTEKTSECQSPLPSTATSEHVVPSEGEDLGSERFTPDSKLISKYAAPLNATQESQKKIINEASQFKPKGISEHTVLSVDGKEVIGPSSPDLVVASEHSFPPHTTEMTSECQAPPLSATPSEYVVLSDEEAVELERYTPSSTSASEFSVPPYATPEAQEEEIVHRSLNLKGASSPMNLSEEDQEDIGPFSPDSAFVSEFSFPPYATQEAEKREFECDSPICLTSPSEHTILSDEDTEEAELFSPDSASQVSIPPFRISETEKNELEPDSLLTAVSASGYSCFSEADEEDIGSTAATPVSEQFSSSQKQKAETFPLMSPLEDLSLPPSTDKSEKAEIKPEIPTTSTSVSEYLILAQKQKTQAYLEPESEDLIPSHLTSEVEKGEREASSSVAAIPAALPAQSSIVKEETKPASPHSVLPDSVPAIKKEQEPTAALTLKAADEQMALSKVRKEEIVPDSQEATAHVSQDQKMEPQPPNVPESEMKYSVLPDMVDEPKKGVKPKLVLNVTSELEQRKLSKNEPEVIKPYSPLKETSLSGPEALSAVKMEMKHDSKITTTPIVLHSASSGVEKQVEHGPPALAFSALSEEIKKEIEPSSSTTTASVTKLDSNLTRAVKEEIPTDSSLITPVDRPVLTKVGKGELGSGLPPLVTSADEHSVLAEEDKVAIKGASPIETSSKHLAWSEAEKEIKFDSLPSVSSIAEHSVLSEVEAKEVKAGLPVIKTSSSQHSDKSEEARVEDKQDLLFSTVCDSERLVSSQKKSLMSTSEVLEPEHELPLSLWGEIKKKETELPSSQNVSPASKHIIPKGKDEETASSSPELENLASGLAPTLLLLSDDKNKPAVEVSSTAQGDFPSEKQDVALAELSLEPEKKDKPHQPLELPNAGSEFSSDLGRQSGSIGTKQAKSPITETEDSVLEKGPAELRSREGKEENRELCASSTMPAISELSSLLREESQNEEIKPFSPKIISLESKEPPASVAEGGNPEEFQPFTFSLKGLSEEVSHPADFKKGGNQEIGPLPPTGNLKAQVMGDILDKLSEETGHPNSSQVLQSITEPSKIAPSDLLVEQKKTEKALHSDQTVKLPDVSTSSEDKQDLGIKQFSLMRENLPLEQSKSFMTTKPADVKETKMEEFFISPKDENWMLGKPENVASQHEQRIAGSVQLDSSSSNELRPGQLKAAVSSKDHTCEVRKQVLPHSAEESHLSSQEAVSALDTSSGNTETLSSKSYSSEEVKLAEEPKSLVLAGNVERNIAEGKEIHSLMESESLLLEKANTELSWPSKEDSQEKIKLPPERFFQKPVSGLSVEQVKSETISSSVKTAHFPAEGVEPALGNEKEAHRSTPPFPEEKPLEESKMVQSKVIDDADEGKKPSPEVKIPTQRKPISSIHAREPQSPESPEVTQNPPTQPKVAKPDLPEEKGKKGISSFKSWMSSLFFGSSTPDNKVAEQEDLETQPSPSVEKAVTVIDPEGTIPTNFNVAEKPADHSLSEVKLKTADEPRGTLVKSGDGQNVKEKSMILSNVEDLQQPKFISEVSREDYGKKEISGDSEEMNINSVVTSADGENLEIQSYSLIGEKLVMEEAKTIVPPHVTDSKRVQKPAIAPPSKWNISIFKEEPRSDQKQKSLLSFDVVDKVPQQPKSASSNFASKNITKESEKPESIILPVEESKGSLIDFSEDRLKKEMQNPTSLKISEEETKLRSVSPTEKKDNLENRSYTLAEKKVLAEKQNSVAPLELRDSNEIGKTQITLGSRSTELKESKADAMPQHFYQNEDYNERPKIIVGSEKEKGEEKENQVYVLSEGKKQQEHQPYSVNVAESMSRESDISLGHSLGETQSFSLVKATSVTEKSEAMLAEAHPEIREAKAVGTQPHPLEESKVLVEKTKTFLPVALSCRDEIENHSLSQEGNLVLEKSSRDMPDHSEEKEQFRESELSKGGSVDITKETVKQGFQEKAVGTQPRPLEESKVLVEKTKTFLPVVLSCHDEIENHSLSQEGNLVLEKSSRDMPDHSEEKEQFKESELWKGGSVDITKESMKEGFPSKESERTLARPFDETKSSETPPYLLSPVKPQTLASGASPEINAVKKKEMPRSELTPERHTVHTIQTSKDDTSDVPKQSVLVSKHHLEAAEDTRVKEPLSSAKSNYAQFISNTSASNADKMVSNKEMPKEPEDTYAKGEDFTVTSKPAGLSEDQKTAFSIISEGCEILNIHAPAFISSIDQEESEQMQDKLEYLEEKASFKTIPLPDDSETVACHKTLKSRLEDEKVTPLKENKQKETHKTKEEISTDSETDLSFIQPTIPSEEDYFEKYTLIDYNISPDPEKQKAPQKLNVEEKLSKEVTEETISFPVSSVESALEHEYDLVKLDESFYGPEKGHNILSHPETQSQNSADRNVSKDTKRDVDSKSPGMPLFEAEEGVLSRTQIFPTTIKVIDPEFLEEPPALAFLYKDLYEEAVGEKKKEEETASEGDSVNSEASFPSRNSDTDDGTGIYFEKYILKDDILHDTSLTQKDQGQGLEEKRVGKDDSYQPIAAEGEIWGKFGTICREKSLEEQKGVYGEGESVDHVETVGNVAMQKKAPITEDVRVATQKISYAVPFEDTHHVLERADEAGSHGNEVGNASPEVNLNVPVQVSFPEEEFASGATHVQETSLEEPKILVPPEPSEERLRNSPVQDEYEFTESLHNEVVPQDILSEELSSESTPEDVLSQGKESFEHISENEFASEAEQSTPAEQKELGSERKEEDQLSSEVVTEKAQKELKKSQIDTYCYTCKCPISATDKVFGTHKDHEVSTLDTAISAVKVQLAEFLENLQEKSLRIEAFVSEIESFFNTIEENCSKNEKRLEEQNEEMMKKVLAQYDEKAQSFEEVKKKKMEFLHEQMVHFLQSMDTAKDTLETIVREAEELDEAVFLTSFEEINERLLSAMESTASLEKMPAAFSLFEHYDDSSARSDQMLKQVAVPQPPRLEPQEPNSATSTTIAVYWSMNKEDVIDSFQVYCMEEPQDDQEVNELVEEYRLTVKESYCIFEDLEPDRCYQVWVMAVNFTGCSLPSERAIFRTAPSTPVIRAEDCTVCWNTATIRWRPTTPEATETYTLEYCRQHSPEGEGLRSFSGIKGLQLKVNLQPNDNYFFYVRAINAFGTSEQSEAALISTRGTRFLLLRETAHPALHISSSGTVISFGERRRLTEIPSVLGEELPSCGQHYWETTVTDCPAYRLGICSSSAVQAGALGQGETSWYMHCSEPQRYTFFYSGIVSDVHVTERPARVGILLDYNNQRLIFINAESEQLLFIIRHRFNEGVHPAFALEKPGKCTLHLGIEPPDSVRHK
UniProt P56749: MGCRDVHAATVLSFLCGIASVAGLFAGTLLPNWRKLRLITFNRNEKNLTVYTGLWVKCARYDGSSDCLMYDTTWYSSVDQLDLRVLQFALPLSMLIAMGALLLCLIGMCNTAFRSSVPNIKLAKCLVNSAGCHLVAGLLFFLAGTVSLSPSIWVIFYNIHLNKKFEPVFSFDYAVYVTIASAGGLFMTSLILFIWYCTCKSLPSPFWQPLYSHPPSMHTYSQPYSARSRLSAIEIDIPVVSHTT
UniProt Q9Y240: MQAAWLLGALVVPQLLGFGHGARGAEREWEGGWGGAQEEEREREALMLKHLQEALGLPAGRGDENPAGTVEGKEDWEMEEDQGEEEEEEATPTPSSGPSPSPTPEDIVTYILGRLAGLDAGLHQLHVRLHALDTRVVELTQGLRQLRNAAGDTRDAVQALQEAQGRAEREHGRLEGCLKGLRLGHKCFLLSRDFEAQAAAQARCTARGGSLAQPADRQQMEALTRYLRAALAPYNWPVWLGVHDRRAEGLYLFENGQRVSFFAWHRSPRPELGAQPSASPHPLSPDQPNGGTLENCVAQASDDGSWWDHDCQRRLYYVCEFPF
UniProt P33552, whole entry, looked up: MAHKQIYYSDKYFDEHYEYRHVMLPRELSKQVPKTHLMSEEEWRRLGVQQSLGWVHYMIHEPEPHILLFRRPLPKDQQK
UniProt O94985: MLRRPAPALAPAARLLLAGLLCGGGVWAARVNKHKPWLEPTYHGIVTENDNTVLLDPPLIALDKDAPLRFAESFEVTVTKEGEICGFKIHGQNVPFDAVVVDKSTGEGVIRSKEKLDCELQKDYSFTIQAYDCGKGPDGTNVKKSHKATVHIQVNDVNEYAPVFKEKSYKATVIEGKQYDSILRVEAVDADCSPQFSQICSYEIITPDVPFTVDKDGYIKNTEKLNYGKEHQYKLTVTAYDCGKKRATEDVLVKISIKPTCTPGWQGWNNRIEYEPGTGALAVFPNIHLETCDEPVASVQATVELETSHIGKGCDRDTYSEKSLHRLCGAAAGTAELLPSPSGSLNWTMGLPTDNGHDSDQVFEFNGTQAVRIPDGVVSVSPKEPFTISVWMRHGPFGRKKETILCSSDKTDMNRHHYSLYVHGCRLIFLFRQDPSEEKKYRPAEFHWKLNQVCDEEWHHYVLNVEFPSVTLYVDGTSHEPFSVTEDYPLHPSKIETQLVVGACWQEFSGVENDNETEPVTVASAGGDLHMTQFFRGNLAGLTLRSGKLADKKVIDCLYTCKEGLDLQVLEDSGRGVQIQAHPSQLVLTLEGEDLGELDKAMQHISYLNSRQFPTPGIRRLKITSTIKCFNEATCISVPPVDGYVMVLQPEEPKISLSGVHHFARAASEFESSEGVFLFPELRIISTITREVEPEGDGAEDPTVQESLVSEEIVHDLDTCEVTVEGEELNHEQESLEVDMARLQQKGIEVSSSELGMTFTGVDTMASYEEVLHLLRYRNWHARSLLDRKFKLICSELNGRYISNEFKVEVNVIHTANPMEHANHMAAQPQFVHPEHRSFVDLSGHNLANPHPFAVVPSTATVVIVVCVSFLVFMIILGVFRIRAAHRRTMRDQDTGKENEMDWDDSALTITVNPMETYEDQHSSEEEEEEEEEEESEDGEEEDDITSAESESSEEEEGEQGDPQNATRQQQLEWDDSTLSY
UniProt Q14011: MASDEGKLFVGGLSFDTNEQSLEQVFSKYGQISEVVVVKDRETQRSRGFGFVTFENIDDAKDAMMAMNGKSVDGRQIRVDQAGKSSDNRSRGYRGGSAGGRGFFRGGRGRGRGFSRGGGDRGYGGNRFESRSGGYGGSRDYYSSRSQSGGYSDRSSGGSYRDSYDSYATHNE

Assays:
Experiment in all cases: log2 fold change, soluble protein after heating vs DMSO (PISA); higher = thermal stabilisation; K562 cells, 10 uM, 30 min; active = over 0.2 and 3.5 SD of the protein, either way, in both replicates (recomputed)
erlotinib = compound: C#Cc1cccc(Nc2ncnc3cc(OCCOC)c(OCCOC)cc23)c1 [erlotinib]
Procedure, shortened: (§1)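 Soluble protein was quantified by TMTpro 16plex LC-MS/MS after channel sums were equalised. It was obtained as the supernatant after 21,000xg for 90 min from pooled aliquots of K562 cells (2×10^6 cells/mL, 10 μM compound, 30 min) heated for 3 min across 48°C-58°C and extracted in PBS with 0.5% NP-40 at 4°C. Thermal stability values are relative to control samples and come from duplicates. They are given as log2 fold changes.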

[1] = compound: C/C(=N\NC(=O)C1=CC(=CC=C1)S(=O)(=O)N2CCOCC2)/C3=C(C=CC(=C3)Cl)O
Procedure, shortened: as §1

[2] = compound: C1=CC(=C(C=C1Cl)C2=NC3=NC=CN=C3C(=N2)NC4=CC=NC=C4)F
Procedure, shortened: as §1

[3] = compound: C1=CC(=CC=C1C2=NC3=C(N2)C=C(C=C3)C(=O)N)OC4=CC=C(C=C4)Cl
Procedure, shortened: as §1

[4] = compound: C1=CC2=C(C=CC(=C2)/C=C\3/C(=O)NC(=NCC4=CC=CS4)S3)N=C1
Procedure, shortened: as §1

[5] = compound: C1=CC2=NC=CN=C2C=C1/C=C/3\C(=O)NC(=O)S3
Procedure, shortened: as §1

[6] = compound: C1=CC=C(C=C1)C2=NC(=C(N2)C3=CC=NC=C3)C4=CC(=C(C=C4)Cl)O
Procedure, shortened: as §1

[7] = compound: C1=CC=C2C(=C1)C3=NNC4=CC=CC(=C43)C2=O
Procedure, shortened: as §1

IRAK-1-4 Inhibitor I = compound: C1COCCN1CCN2C3=CC=CC=C3N=C2NC(=O)C4=CC(=CC=C4)[N+](=O)[O-] [IRAK-1-4 Inhibitor I]
Procedure, shortened: as §1

ibrutinib = compound: C=CC(=O)N1CCC[C@@H](n2nc(-c3ccc(Oc4ccccc4)cc3)c3c(N)ncnc32)C1 [ibrutinib]
Procedure, shortened: as §1

[8] = compound: CC(=O)c1cnc2ccc(-c3cc(Cl)c(O)c(Cl)c3)nc2c1N[C@H]1CC[C@H](CN(C)C)CC1
Procedure, shortened: as §1

ralimetinib = compound: CC(C)(C)Cn1c(N)nc2ccc(-c3[nH]c(C(C)(C)C)nc3-c3ccc(F)cc3)nc21 [ralimetinib]
Procedure, shortened: as §1

[9] = compound: CC(C)(O)CC(=O)NCCn1ccc2ncnc(Nc3ccc(Oc4cccc(C(F)(F)F)c4)c(Cl)c3)c21
Procedure, shortened: as §1

[10] = compound: CC(C)C1=C2N=C(C=C(N2N=C1)NCC3=CC=CC=C3)NCCCCCCN
Procedure, shortened: as §1

[11] = compound: CC(C)C[C@@H](C=O)NC(=O)[C@H](CC(C)C)NC(=O)[C@H](CC(C)C)NC(=O)OCc1ccccc1
Procedure, shortened: as §1

pinometostat = compound: CC(C)N(C[C@H]1O[C@@H](n2cnc3c(N)ncnc32)[C@H](O)[C@@H]1O)[C@H]1C[C@@H](CCc2nc3cc(C(C)(C)C)ccc3[nH]2)C1 [pinometostat]
Procedure, shortened: as §1

[12] = compound: CC1=C(C(CC(=O)N1)C2=CC=C(C=C2)C(F)(F)F)C(=O)NC3=C(C=C4C(=C3)C=NN4)F
Procedure, shortened: as §1

[13] = compound: C1CCN(C1)C(=O)NC2=CC=CC(=C2)NC3=NC=C(C(=N3)NCCC4=CN=CN4)Br
Procedure, shortened: as §1

[14] = compound: C1CN(CCC1(CC2=CC=C(C=C2)Cl)N)C3=NC=NC4=C3C=CN4
Procedure, shortened: as §1

[15] = compound: CC1=C(C2=C(C=C1)C(=O)C3=CC=CC=C3N2CCCN)C
Procedure, shortened: as §1

Measured: log2 fold change

COA4 isoform 2 (UniProt Q9NYJ1)
inactive: erlotinib -0.104 | [1] -0.053 | [2] 0.355 | [3] 0.005 | [4] 0.1 | [5] 0.183 | [6] 0.032 | [7] 0.318 | IRAK-1-4 Inhibitor I -0.169 | ibrutinib 0.01 | [8] -0.052 | ralimetinib -0.263 | [9] -0.07 | [10] 0.112 | [11] 0 | pinometostat -0.077 | [12] 0.1

CNNM2 (UniProt Q9H8M5)
inactive: erlotinib 0.067 | [2] 0.022 | [3] -0.004 | [5] 0.033 | [6] -0.062 | [13] -0.061 | [14] -0.112 | IRAK-1-4 Inhibitor I -0.034 | ibrutinib 0.107 | ralimetinib 0.072 | [9] -0.099 | [10] 0.118 | [11] -0.117 | pinometostat 0.015 | [12] -0.087 | [15] 0.177

COG6 (UniProt Q9Y2V7)
inactive: erlotinib 0.045 | [1] -0.033 | [3] -0.034 | [4] 0.174 | [6] -0.179 | [7] -0.007 | [13] -0.243 | [14] -0.282 | [8] 0.126 | ralimetinib 0.037 | [10] -0.211 | [11] -0.162 | [15] 0

CLCNKB (UniProt P51801)
inactive: erlotinib 0.014 | [1] 0.014 | [2] 0.267 | [3] -0.02 | [4] -0.079 | [7] -0.19 | IRAK-1-4 Inhibitor I -0.002 | [8] -0.021 | [9] -0.122 | [10] -0.042 | pinometostat 0.034 | [12] 0.071

CHST12 (UniProt Q9NRB3)
inactive: erlotinib 0.097 | [2] 0.004 | [3] 0.166 | [5] 0.115 | [6] 0.047 | [13] -0.07 | [14] 0.012 | IRAK-1-4 Inhibitor I -0.047 | ibrutinib -0.213 | ralimetinib -0.129 | [9] 0.013 | [10] 0.334 | [11] 0.271 | pinometostat 0.029 | [15] -0.069

CNPY4 (UniProt Q8N129)
inactive: erlotinib 0.02 | [1] 0.004 | [3] 0.001 | [4] -0.081 | [5] 0.087 | [6] -0.036 | [7] 0.086 | [13] -0.061 | [14] 0.101 | ibrutinib 0.027 | [8] -0.07 | ralimetinib -0.058 | [10] 0.059 | [11] -0.098 | [12] -0.041 | [15] -0.065

CMC4 (UniProt P56277)
inactive: erlotinib 0.139 | [1] 0.048 | [3] -0.106 | [4] 0.122 | [6] 0.067 | [7] 0.043 | IRAK-1-4 Inhibitor I -0.083 | [8] -0.098 | ralimetinib 0.024 | [10] 0.037 | [11] -0.055 | pinometostat -0.058

CNOT6 (UniProt Q9ULM6)
inactive: erlotinib 0.012 | [1] -0.019 | [3] -0.157 | [4] -0.089 | [5] -0.2 | [6] -0.169 | [7] 0.055 | ibrutinib -0.04 | [8] 0.018 | ralimetinib -0.055 | [10] -0.202 | [11] 0.18 | [12] -0.064

CIAO2B (UniProt Q9Y3D0)
inactive: erlotinib 0.053 | [3] -0.029 | [5] -0.047 | IRAK-1-4 Inhibitor I -0.022 | ibrutinib 0.025 | [10] -0.17 | pinometostat 0.184 | [12] 0.038

COG1 (UniProt Q8WTW3)
inactive: [6] -0.2 | [13] -0.493 | [14] -0.516 | IRAK-1-4 Inhibitor I -0.04 | ralimetinib 0.018 | [11] 0.103 | pinometostat 0.179 | [15] -0.079

CLYBL (UniProt Q8N0X4)
inactive: erlotinib 0.029 | [3] 0.081 | [10] 0.077

CMYA5 (UniProt Q8N3K9)
inactive: [5] -0.048 | [6] 0.008 | [13] 0.267 | [14] 0.023 | ibrutinib -0.014 | ralimetinib 0.01 | [11] -0.011 | [12] 0.158 | [15] 0.264

CHTOP isoform 3 (UniProt Q9Y3Y2)
inactive: erlotinib -0.245 | [2] -0.232 | [3] -0.016 | [13] -0.241 | [14] -0.246 | IRAK-1-4 Inhibitor I 0.107 | [9] 0.168 | [10] 0.329 | pinometostat 0.125 | [15] -1.09

CLDN6 (UniProt P56747)
inactive: erlotinib -0.057 | [3] -0.09 | [10] 0.226

CLDN12 (UniProt P56749)
inactive: [2] -0.143 | [5] 0.142 | [9] 0.147

CMIP (UniProt Q8IY22)
inactive: [2] -0.394 | [5] 0.012 | [6] -0.09 | ibrutinib 0.132 | ralimetinib 0.069 | [9] 0.032 | [11] -0.068

CLEC11A (UniProt Q9Y240)
inactive: erlotinib -0.029 | [3] -0.067 | [13] 0.007 | [14] 0.016 | [10] 0.086 | [15] -0.26

CLPTM1L (UniProt G5E9Z2)
inactive: [1] 0.109 | [2] 0.492 | [4] -0.139 | [5] 0.284 | [7] 0.174 | [13] 0.145 | [14] 0.272 | [8] -0.03 | [9] -0.556 | [15] -0.201

CKS2 (UniProt P33552)
inactive: [1] 0.125 | [4] 0.116 | [5] -0.001 | [7] -0.032 | [13] 0.022 | [14] 0.02 | ibrutinib -0.087 | [8] -0.168 | [15] -0.058

COG5 isoform 2 (UniProt Q9UP83)
inactive: erlotinib -0.079 | [3] 0.014 | [6] 0.023 | IRAK-1-4 Inhibitor I -0.162 | ralimetinib 0.324 | [10] 0.089 | [11] 0.099 | pinometostat 0.427

CLSTN1 (UniProt O94985)
inactive: [1] -0.22 | [4] 0.312 | [5] 0.087 | [6] -0.681 | [7] -0.005 | [13] 0.27 | [14] -0.082 | IRAK-1-4 Inhibitor I 0.028 | [8] -0.044 | ralimetinib -0.188 | [11] -0.044 | pinometostat -0.007 | [15] -0.15

CHUK (UniProt O15111)
inactive: [1] -0.096 | [2] -0.505 | [4] -0.022 | [6] -0.018 | [7] 0.162 | [13] -0.285 | [14] -0.28 | [8] 0.289 | ralimetinib 0.138 | [9] 0.002 | [11] 0.136 | [15] -0.126

COL14A1 (UniProt Q05707)
inactive: [2] -0.018 | [13] -0.036 | [14] -0.116 | IRAK-1-4 Inhibitor I -0.036 | [9] 0.136 | pinometostat -0.254 | [12] 0.033 | [15] -0.158

CIRBP (UniProt Q14011)
inactive: [1] -0.138 | [2] -0.561 | [4] -0.089 | [5] 0.086 | [7] 0.048 | [13] 0.056 | [14] 0.181 | ibrutinib 0.151 | [8] 0.091 | [9] 0.052 | [12] 0.032 | [15] -0.207

2 successive entries out of the list so far, quoted:
CNOT6 (UniProt Q9ULM6)
inactive: erlotinib 0.012 | [1] -0.019 | [3] -0.157 | [4] -0.089 | [5] -0.2 | [6] -0.169 | [7] 0.055 | ibrutinib -0.04 | [8] 0.018 | ralimetinib -0.055 | [10] -0.202 | [11] 0.18 | [12] -0.064

CIAO2B (UniProt Q9Y3D0)
inactive: erlotinib 0.053 | [3] -0.029 | [5] -0.047 | IRAK-1-4 Inhibitor I -0.022 | ibrutinib 0.025 | [10] -0.17 | pinometostat 0.184 | [12] 0.038

(list continues)

CLN6 (UniProt Q9NWW5)
inactive: [1] 0.047 | [2] 0.019 | [4] 0.204 | [5] -0.084 | [6] 0.117 | [7] -0.199 | [13] 0.12 | [14] -0.035 | [8] -0.024 | ralimetinib -0.045 | [9] -0.051 | [11] 0.025 | [12] -0.18 | [15] 0.093

CLIC6 (UniProt Q96NY7)
inactive: [2] 0.086 | [5] 0.007 | [6] -0.028 | [13] -0.013 | [14] -0.001 | IRAK-1-4 Inhibitor I -0.08 | ralimetinib -0.078 | [9] -0.098 | [11] -0.021 | pinometostat -0.041 | [12] 0.181 | [15] 0.028

CHSY1 (UniProt Q86X52)
inactive: [2] -0.161 | [9] -0.155

CKAP4 (UniProt Q07065)
inactive: [1] 0.118 | [4] 0.003 | [6] -0.087 | [7] 0.012 | [13] -0.054 | [14] -0.029 | [8] -0.158 | ralimetinib -0.123 | [11] -0.049 | [12] 0 | [15] 0.114

CLCN5 isoform 2 (UniProt P51795)
inactive: erlotinib -0.009 | [3] 0.064 | [6] 0.125 | [13] -0.098 | [14] -0.011 | IRAK-1-4 Inhibitor I -0.019 | ralimetinib -0.154 | [10] -0.29 | [11] -0.004 | pinometostat 0.061 | [15] 0.009

CLINT1 (UniProt Q14677)
inactive: [1] -0.106 | [2] -0.12 | [4] -0.176 | [5] 0.035 | [7] 0.031 | [13] -0.097 | [14] -0.057 | [8] 0.059 | [9] 0.221 | pinometostat 0.058 | [15] -0.114

CLSTN3 isoform 2 (UniProt Q9BQT9)
inactive: [1] -0.061 | [2] -0.088 | [4] 0.005 | [7] -0.021 | [8] -0.074 | [9] 0.103
